For at least one compound, name, drawing or mass did not settle the structure.
Test system: SARS-COV-2
Assay: In vitro inhibition of SARS-COV-2 replication in Vero E6 cells (viral load by quantitative real-time RT-PCR)
Type: cell-based
Conditions: APHR Combination 1 minus one agent

| Compound | effect of removal of the single agent from the formulation on overall activity (FIG. 18) |
| --- | --- |
| C[C@@H]1O[C@@H](OC[C@H]2O[C@@H](Oc3c(-c4ccc(O)c(O)c4)oc4cc(O)cc(O)c4c3=O)[C@H](O)[C@@H](O)[C@@H]2O)[C@H](O)[C@H](O)[C@H]1O [rutin] | reduced overall activity |
| C=C(C)[C@@H]1CC[C@]2(C(=O)O)CC[C@]3(C)[C@H](CC[C@@H]4[C@@]5(C)CC[C@H](O)C(C)(C)[C@@H]5CC[C@]43C)[C@@H]12 [betulinic acid] | reduced overall activity |

Source: US20240350659A1, “COMPOSITIONS AND METHODS FOR BIMODAL ANTI-VIRAL COMBINATION THERAPY” (priority 2021, published 2024)
